These are yes or no findings as the source states them, for the method shown. Binding seen in cells or lysates may run through a third protein. Some results given as binding are weak or reduced against the parent protein; the word gives no strength. For part of these data: Sequences can lack the tags named with a protein.
How the values were obtained:
[1] = target: T1, Flag-tagged RRM2B, transiently expressed in 293T cells (human) (UniProt Q7LG56); assay: co-IP; 293T cells co-transfected with untagged RRM2B or Flag-RRM2B and HA-PYCR1, HA-PYCR2 or HA-PYCRL, lysed 48 hours later; whole cell lysates precipitated with antibodies to HA or Flag; Western blot
T1 sequence: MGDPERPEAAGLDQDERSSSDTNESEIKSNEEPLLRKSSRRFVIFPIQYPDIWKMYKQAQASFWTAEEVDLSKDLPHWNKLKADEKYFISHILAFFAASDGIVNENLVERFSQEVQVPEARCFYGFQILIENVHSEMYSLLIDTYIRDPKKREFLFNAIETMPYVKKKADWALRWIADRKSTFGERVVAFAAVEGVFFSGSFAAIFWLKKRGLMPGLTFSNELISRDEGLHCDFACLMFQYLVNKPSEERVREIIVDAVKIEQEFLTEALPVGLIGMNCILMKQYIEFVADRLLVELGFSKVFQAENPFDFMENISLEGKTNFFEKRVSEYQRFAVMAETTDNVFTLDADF

[2] = target: T2, Endogenous RRM2B, ribonucleotide reductase small subunit B (human (endogenous in 293T)) (UniProt Q7LG56); assay: co-IP; endogenous proteins; whole cell lysate of proliferating 293T cells precipitated with antibodies to RRM2B, PYCR1 or PYCR2 or control rabbit or mouse IgG; Western blot
T2 sequence: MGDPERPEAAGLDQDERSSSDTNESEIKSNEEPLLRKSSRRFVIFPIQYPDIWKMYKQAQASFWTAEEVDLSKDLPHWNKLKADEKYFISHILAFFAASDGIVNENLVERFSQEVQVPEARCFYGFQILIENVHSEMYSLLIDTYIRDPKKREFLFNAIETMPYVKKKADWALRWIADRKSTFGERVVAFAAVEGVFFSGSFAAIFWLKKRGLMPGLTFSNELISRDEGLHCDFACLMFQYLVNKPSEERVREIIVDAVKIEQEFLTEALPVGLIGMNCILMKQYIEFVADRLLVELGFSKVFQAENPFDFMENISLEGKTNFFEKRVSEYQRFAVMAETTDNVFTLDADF

[3] = target: T3, OneStrep-tagged RRM2B (OneStrep at the C-terminus) (human) (UniProt Q7LG56); assay: co-IP; whole cell lysates of doxycycline-induced (24 h) 293 T-REx lines expressing epitope-tagged RRM2B, precipitated with anti-Flag beads, anti-HA beads or Strep-Tactin resin; buffer A (50 mM HEPES pH 7.5, 70 mM potassium acetate, 5 mM magnesium acetate), 4 °C; Western blot; untagged RRM2B cells as control
T3 sequence: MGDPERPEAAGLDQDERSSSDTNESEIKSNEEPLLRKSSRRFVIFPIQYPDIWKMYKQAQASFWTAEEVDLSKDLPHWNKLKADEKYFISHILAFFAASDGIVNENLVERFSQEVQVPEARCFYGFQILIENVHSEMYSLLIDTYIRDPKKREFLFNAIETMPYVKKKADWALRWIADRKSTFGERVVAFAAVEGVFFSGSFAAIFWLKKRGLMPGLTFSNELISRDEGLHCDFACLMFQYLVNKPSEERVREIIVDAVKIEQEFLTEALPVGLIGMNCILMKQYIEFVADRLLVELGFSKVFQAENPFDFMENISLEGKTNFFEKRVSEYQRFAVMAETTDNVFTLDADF

[4] = target: T4, HA-tagged RRM2B (HA at the C-terminus) (human) (UniProt Q7LG56); assay: as above
T4 sequence: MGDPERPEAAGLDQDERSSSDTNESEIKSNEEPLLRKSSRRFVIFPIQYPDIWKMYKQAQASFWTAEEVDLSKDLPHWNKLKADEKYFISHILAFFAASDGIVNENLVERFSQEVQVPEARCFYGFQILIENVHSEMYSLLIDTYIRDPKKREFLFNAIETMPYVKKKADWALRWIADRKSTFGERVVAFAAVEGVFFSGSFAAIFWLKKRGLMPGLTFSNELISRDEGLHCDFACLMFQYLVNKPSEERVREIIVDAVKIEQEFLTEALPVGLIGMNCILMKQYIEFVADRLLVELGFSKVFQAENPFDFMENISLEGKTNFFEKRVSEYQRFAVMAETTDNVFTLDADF

[5] = target: T5, Flag-tagged RRM2B (Flag at the N-terminus), ribonucleotide reductase small subunit B (human) (UniProt Q7LG56); assay: as above
T5 sequence: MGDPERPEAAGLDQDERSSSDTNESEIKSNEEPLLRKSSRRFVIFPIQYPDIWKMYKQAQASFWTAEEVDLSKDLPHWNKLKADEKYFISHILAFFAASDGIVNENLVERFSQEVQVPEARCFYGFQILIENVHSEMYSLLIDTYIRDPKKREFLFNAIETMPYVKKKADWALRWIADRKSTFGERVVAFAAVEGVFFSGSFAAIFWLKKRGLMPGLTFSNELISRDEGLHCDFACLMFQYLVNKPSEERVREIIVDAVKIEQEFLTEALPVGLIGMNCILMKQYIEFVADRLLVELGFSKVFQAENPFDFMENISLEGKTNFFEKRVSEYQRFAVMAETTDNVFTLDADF

[6] = target: T6, Flag-tagged RRM2B (Flag at the C-terminus) (human) (UniProt Q7LG56); assay: as above
T6 sequence: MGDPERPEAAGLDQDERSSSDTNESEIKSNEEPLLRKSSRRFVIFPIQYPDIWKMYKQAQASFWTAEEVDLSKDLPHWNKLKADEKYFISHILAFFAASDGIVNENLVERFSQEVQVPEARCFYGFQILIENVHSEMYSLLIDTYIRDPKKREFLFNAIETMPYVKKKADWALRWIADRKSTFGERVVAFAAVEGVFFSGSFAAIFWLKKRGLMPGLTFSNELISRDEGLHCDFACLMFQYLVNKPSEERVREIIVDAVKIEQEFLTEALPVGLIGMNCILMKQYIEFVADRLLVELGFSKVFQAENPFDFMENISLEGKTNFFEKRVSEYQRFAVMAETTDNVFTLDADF

Measured: binding

B1: HA-tagged pyrroline-5-carboxylate reductase-like (PYCRL) (protein, UniProt Q53H96 1-274)
chain: MAAAEPSPRRVGFVGAGRMAGAIAQGLIRAGKVEAQHILASAPTDRNLCHFQALGCRTTHSNQEVLQSCLLVIFATKPHVLPAVLAEVAPVVTTEHILVSVAAGVSLSTLEELLPPNTRVLRVLPNLPCVVQEGAIVMARGRHVGSSETKLLQHLLEACGRCEEVPEAYVDIHTGLSGSGVAFVCAFSEALAEGAVKMGMPSSLAHRIAAQTLLGTAKMLLHEGQHPAQLRSDVCTPGGTTIYGLHALEQGGLRAATMSAVEAATCRAKELSRK
binds: [1]

B2: RRM2, ribonucleotide reductase small subunit (protein, UniProt P31350 1-389)
chain: MLSLRVPLAPITDPQQLQLSPLKGLSLVDKENTPPALSGTRVLASKTARRIFQEPTEPKTKAAAPGVEDEPLLRENPRRFVIFPIEYHDIWQMYKKAEASFWTAEEVDLSKDIQHWESLKPEERYFISHVLAFFAASDGIVNENLVERFSQEVQITEARCFYGFQIAMENIHSEMYSLLIDTYIKDPKEREFLFNAIETMPCVKKKADWALRWIGDKEATYGERVVAFAAVEGIFFSGSFASIFWLKKRGLMPGLTFSNELISRDEGLHCDFACLMFKHLVHKPSEERVREIIINAVRIEQEFLTEALPVKLIGMNCTLMKQYIEFVADRLMLELGFSKVFRVENPFDFMENISLEGKTNFFEKRVGEYQRMGVMSSPTENSFTLDADF
binds: [2] | [3] | [4] | [5] | [6]

From paper PMC4702135
